PubChem BioAssay AID504467 (National Center for Advancing Translational Sciences (NCATS), 2011)
The campaign covered roughly 330,000 compounds. About 7,700 (2.3%) were called active. The inconclusive results got no clear call from the source; some entries with a clear call stand among them for comparison. Calls follow the shape of the dose curve; as a rule, active = well fitted inhibition curve with a large enough effect; inconclusive = small, poorly fitted or top-dose-only effect, or effect the other way; inactive = flat fitted curve, though single readings scatter. A potency beside an inconclusive call is a rough fit, not a confirmed value.

assay: qHTS screen for small molecules that inhibit ELG1-dependent DNA repair in human embryonic kidney (HEK293T) cells expressing luciferase-tagged ELG1; conditions: HEK293T ELG1-luciferase reporter, luminescence, 16 h, DNA damage induced by 5-fluorouridine; activity change, negative = inhibition: at 46.1 µM (top of the series); also: nearly all actives have a fitted effect of over 55% in size
Procedure, shortened: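 In this reporter screen, reduction of luminescence relative to DMSO vehicle indicated activity. Compounds and 5-fluorouridine were added together to 2,000 cells per well, incubated for 16 hr at 37 °C, then developed with ONE-Glo.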
% is scaled to controls: 0 for no effect and ±100 for the full control effect; potency is read from the fitted curve at half-maximal effect.

Row | Structure (SMILES) | activity change, negative = inhibition | Potency
1 | O=C(N/N=C/c1ccc(N2CCOCC2)s1)c1ccccc1Br | inactive: 6.54% | 
2 | CCn1c(=O)c2cc(C(=O)N(C)c3ccc(OC)cc3OC)sc2c2ccccc21 |  | inconclusive: 20.6 µM [inhibitor, single point]
3 | CN1C(C(=O)Nc2ccccn2)=C(O)c2sccc2S1(=O)=O |  | inconclusive: 9.2 µM [activator, full curve, poor fit]
4 | O=C(N/N=C/C=C\c1ccccc1)c1cnccn1 |  | inconclusive: 18.3 µM [activator, single point]
5 | CCOc1ccc(NC(=O)c2cc(S(=O)(=O)N3CCCCC3)c[nH]2)cc1 | inactive: 1.98% | 
6 | O=C(CNC(=O)c1ccc(Cl)cc1Cl)OCc1nnc(-c2ccccc2)o1 | inactive: 22.3% | 
7 | COc1cc(OC)c(C(=O)Nc2ccccc2-c2ccccc2)cc1OC |  | inconclusive: 29.1 µM [inhibitor, single point]
8 | CN(CCN1CCOCC1)C(=O)c1cc(COc2ccc(F)c(F)c2)on1 |  | inconclusive: 20.6 µM [activator, single point]
9 | COc1ccc(CNC(=O)C(c2ccco2)N(Cc2cccs2)C(=O)Cc2cccs2)cc1 (stereo not given) |  | active: 14.6 µM
10 | O=C(NCCCCc1ccccc1)NC[C@@H]1CC[C@@H](Cc2ccc(-c3ccccc3)cc2)O1 |  | inconclusive: 8.2 µM [inhibitor, partial curve, poor fit]
11 | Cc1ccc2cc3cc(C(=O)NCCCN4CCCC4)oc3nc2c1 |  | inconclusive: 29.1 µM [activator, partial curve, poor fit]
12 | CSc1nc(-c2ccccc2)nc(C(C)C)n1 |  | inconclusive: 6.51 µM [activator, partial curve, poor fit]
13 | COc1ccc(CN2CCN(S(=O)(=O)c3ccc(F)cc3)CC2)cc1OC |  | active: 13 µM
14 | Cc1nc(-c2ccc(S(=O)(=O)N3CCCN(CCc4ccccc4)CC3)s2)cs1 |  | inconclusive: 29.1 µM [inhibitor, single point]
15 | COc1ccc(-c2[nH]ncc2N=Nc2cc(C)cc(C)c2)cc1 |  | inconclusive: 29.1 µM [inhibitor, single point]
16 | COc1ccc(/C=C2/Sc3ccc(C(=O)NCCN4CCCCCC4)cc3NC2=O)cc1 |  | inconclusive: 29.1 µM [inhibitor, single point]
17 | Cn1nnnc1Sc1ncnc2scc(-c3ccccc3Cl)c12 |  | inconclusive: 29.1 µM [inhibitor, single point]
18 | Cc1cc(NCCN2CCCCC2)n2c(nc3ccccc32)c1C#N |  | inconclusive: 9.2 µM [inhibitor, partial curve, poor fit]
19 | Cc1cc(C)n2nc(-c3ccc(F)cc3)nc2n1 |  | inconclusive: 11.6 µM [activator, partial curve]
20 | Cc1ccc(N2C(N)=C(C#N)C(c3ccsc3)C3=C2CC(C)(C)CC3=O)cc1 (stereo not given) | inactive: -28.6% | 
21 | CNC(=S)/N=C(/Nc1ccccc1)c1ccccc1 | inactive: -8.88% | 
22 | N/C(=N\OC(=O)COc1ccc2ccccc2c1Br)c1ccncc1 |  | inconclusive: 20.6 µM [activator, single point]
23 | O=C(N/N=C/c1ccc(O)cc1O)/C(=C/c1ccccc1)CCO |  | inconclusive: 6.51 µM [inhibitor, single point]
24 | Cc1ccc(C(C)C)cc1S(=O)(=O)NCc1ccccn1 |  | inconclusive: 1.16 µM [inhibitor, full curve, poor fit]

Some of the entries so far, as tab-separated lines:
Row	Structure (SMILES)	activity change, negative = inhibition	Potency
6	O=C(CNC(=O)c1ccc(Cl)cc1Cl)OCc1nnc(-c2ccccc2)o1	inactive: 22.3%	
7	COc1cc(OC)c(C(=O)Nc2ccccc2-c2ccccc2)cc1OC		inconclusive: 29.1 µM [inhibitor, single point]

Going on with the list:

Row | Structure (SMILES) | activity change, negative = inhibition | Potency
25 | CC1(C)C(=O)OC(c2cc(Br)ccc2O)C(C)(C)C1=O (stereo not given) |  | inconclusive: 29.1 µM [inhibitor, single point]
26 | COc1ccccc1NC(=O)COC(=O)C1CCCC1 | inactive: 22.9% | 
27 | CCOC(=O)c1cc(-c2ccccc2)sc1NC(=O)C(C)Sc1nnc(C)s1 (stereo not given) |  | inconclusive: 29.1 µM [inhibitor, partial curve, poor fit]
28 | CC(=O)c1sc2nsc(SCCN3CCCCC3)c2c1N |  | inconclusive: 13 µM [activator, partial curve, poor fit]
29 | COc1ccc(NC(=S)NCc2cccn2C)cc1 |  | inconclusive: 20.6 µM [inhibitor, single point]
30 | Cc1csc(Nc2ccc(Cl)cc2)n1 |  | inconclusive: 16.4 µM [activator, partial curve]
31 | COC(=O)c1ccc(OCC(=O)NCCC2=CCCCC2)c(OC)c1 |  | inconclusive: 16.4 µM [inhibitor, partial curve]
32 | Cc1ccc(NC(=O)COC(=O)Cn2ccc(C(F)(F)F)n2)cc1Cl | inactive: 6.22% | 
33 | COc1cccc(OC)c1C(=O)NC(C)C12CC3CC(CC(C3)C1)C2 (stereo not given) | inactive: -31.5% | 
34 | COCC(C)NC(=O)c1ccc(-n2nc(C(F)(F)F)cc2-c2cccs2)cc1 (stereo not given) |  | inconclusive: 20.6 µM [inhibitor, single point]
35 | CCCC(=O)N=C1SC2CS(=O)(=O)CC2N1c1ccc(-c2nc3ccc(C)cc3s2)cc1 (stereo not given) |  | inconclusive: 8.2 µM [activator, partial curve]
36 | COc1cc(NC(=O)CCc2nnc3ccc(NCc4ccco4)nn23)cc(OC)c1 | inactive: -3.43% | 
37 | COc1ccc(NC(=O)N(C)C[C@H]2Oc3c(NC(=O)Nc4ccc(C(F)(F)F)cc4)cccc3C(=O)N([C@H](C)CO)C[C@@H]2C)cc1 |  | inconclusive: 8.2 µM [inhibitor, partial curve]
38 | Cc1ccccc1C(C)NS(=O)(=O)c1ccc2c(c1)OCCO2 (stereo not given) | inactive: -16.7% | 
39 | Cc1cc(C)cc(NC(=O)Nc2ccc3c(c2)N(C)C(=O)CS3)c1 |  | inconclusive: 29.1 µM [inhibitor, single point]
40 | Cc1cc(CNC(=O)COc2ccccc2F)c2ccccc2n1 | inactive: -9.24% | 
41 | Cc1nnc(N/N=C\c2ccc(-c3ccccc3[N+](=O)[O-])o2)n1N |  | inconclusive: 20.6 µM [activator, single point]
42 | C=CCn1cc(/C=N/Nc2nc3ccccc3[nH]2)c2ccccc21 |  | inconclusive: 16.4 µM [activator, single point]
43 | Cc1ccc(-c2nnc(-c3cccnc3)o2)cc1 |  | inconclusive: 20.6 µM [activator, partial curve]
44 | Cc1cc(C(=O)COC(=O)c2ccc(Cl)c(S(N)(=O)=O)c2)c(C)n1C1CC1 |  | inconclusive: 0.58 µM [activator, partial curve]
45 | Cc1cc(NC(=O)COC(=O)c2ccccc2O)no1 |  | inconclusive: 16.4 µM [activator, partial curve, poor fit]
46 | COc1ccc(NC(=O)CN(c2ccccc2F)S(=O)(=O)c2ccc(C)cc2)c(OC)c1 |  | inconclusive: 15.8 µM [inhibitor, single point]
47 | O=C(CC1NC(=O)NC1=O)Nc1ccc(Cl)cc1 (stereo not given) | inactive: 12.6% | 
48 | O=c1[nH]c(CN2CCN(S(=O)(=O)c3ccccc3C(F)(F)F)CC2)nc2sc3c(c12)CCCC3 |  | active: 16.4 µM

Row | Structure (SMILES) | activity change, negative = inhibition | Potency
49 | COc1ccc(C2=NN(C(=O)c3cccs3)C(O)(C(F)(F)F)C2)cc1 (stereo not given) |  | inconclusive: 23.1 µM [inhibitor, single point]
50 | O=S(=O)(c1cccc(Cl)c1Cl)N1CCN(C(=S)NCCCN2CCOCC2)CC1 |  | inconclusive: 16.4 µM [inhibitor, single point]
51 | COc1ccccc1CNC(=O)COc1cccc(-n2cnnn2)c1 | inactive: 11.9% | 
52 | COc1ccc(-c2nc(-c3ccccn3)no2)cc1 |  | inconclusive: 0.058 µM [activator, full curve, poor fit]
53 | COc1cc(SC)ccc1C(=O)Nc1c(Cl)cncc1Cl | inactive: -11% | 
54 | CN(C)/C=N/C(=S)Nc1ccc(Cl)cc1Cl |  | inconclusive: 23.1 µM [activator, partial curve]
55 | CC1(c2ccc3ccccc3c2)NC(=O)N(CC(N)=O)C1=O (stereo not given) | inactive: -0.705% | 
56 | COc1ccc(CCNC(=O)COC(=O)c2cc(OC)c(OC)cc2OC)cc1 |  | inconclusive: 29.1 µM [inhibitor, single point]
57 | CCn1c(SCC(=O)Nc2ccc(OC)cc2)nc2nc3c(cc2c1=O)COC(C)(C)C3 |  | active: 20.6 µM
58 | Cc1cc(C(=O)Cn2cnc3cc(F)ccc3c2=O)c(C)n1C1CC1 |  | inconclusive: 14.6 µM [activator, partial curve]
59 | Cc1nonc1C(=O)N/N=C/c1ccc(O)cc1 |  | inconclusive: 16.4 µM [activator, single point]
60 | Cc1cc(N/N=C\c2ccccc2)nc(-c2ccccc2O)n1 |  | inconclusive: 29.1 µM [inhibitor, single point]
61 | CC(=O)OC(C(=O)Nc1nccs1)c1ccccc1 (stereo not given) | inactive: 5.49% | 
62 | O=C1CC(N2CCN(C/C=C/c3ccccc3)CC2)C(=O)N1CCc1ccccc1 (stereo not given) |  | inconclusive: 18.4 µM [inhibitor, single point]
63 | CCC1=C(OC(=O)N(CC)CC)N2C(=O)OC(=NCCc3c[nH]c4ccccc34)[C@]2(Cc2ccccc2)[C@H]2C1=CC[C@H]1C(=O)NC(=O)[C@H]12 |  | inconclusive: 0.73 µM [inhibitor, full curve, poor fit]
64 | O=C(NCCN1CCN(C(=O)c2ccc(Br)cc2)CC1)c1ccc(Br)cc1 |  | inconclusive: 20.6 µM [inhibitor, single point]
65 | O=C(OC1CCOC1=O)c1ccc(CO)cc1 (stereo not given) | inactive: 8.34% | 
66 | CC(C)c1cc(C(C)C)n2nc(N)nc2n1 |  | inconclusive: 11.6 µM [activator, partial curve, poor fit]
67 | CSCC[C@H](N)C(=O)N1CCC(C(=O)N[C@@H](C)C(=O)NCc2ccc(F)cc2)CC1 | inactive: 3.34% | 
68 | Cc1ccc(-c2nc(CSCC(=O)NCCN3CCN(Cc4ccccc4)CC3)c(C)o2)cc1 |  | active: 16.4 µM
69 | Cc1cc2ccccn2c1C(=O)c1ccc(S(=O)(=O)N(C)C)cc1 |  | active: 16.4 µM
70 | CCOc1ccc2[nH]c(=O)c(C(c3nnnn3C3CCCCC3)N3CCN(C)CC3)cc2c1 (stereo not given) | inactive: 15.5% | 
